Some of the results follow.
Assays:
Test in all cases: log2 fold change, soluble protein after heating vs DMSO (PISA); higher = thermal stabilisation; K562 cells, 10 uM, 30 min; active = over 0.2 and 3.5 SD of the protein, either way, in both replicates (recomputed)
[1] = compound: CN1CCN(CCOc2cc(OC3CCOCC3)c3c(Nc4c(Cl)ccc5c4OCO5)ncnc3c2)CC1 [saracatinib]
Summary of the method: (§1)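 For each measurement, 10 μM compound was applied for 30 min to K562 cells at 2×10^6 cells/mL. Aliquots were heated for 3 min across 48°C-58°C, pooled, and extracted in PBS with 0.5% NP-40 at 4°C; the supernatant after 21,000xg for 90 min was soluble protein. This was quantified by TMTpro 16plex LC-MS/MS with channel sums equalised, and thermal stability was reported relative to control samples from duplicates, on a log2 fold-change scale.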

Chains of the proteins cited; added tags and fusions are not shown. Lines headed by an entry give the natural chain unless they say otherwise; changes in a name come on top.
UniProt Q99797: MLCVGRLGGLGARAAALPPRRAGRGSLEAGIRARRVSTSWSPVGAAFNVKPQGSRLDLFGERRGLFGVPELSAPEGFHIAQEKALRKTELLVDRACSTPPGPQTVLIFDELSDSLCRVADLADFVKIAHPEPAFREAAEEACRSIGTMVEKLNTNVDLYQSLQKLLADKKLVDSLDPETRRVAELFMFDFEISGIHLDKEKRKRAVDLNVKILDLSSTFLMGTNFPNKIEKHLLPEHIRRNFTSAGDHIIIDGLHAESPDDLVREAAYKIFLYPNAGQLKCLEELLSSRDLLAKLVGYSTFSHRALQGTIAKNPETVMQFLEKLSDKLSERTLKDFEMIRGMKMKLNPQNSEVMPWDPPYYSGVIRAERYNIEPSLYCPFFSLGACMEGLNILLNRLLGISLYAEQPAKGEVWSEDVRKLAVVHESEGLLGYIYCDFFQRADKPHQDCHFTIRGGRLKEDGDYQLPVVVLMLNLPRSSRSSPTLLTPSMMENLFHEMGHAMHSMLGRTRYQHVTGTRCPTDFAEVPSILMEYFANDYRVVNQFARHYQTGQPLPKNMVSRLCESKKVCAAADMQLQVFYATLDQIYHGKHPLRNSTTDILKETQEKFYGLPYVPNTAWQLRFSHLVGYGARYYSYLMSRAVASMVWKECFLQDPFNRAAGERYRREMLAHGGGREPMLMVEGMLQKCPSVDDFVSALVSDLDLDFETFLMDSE
UniProt Q8IY33: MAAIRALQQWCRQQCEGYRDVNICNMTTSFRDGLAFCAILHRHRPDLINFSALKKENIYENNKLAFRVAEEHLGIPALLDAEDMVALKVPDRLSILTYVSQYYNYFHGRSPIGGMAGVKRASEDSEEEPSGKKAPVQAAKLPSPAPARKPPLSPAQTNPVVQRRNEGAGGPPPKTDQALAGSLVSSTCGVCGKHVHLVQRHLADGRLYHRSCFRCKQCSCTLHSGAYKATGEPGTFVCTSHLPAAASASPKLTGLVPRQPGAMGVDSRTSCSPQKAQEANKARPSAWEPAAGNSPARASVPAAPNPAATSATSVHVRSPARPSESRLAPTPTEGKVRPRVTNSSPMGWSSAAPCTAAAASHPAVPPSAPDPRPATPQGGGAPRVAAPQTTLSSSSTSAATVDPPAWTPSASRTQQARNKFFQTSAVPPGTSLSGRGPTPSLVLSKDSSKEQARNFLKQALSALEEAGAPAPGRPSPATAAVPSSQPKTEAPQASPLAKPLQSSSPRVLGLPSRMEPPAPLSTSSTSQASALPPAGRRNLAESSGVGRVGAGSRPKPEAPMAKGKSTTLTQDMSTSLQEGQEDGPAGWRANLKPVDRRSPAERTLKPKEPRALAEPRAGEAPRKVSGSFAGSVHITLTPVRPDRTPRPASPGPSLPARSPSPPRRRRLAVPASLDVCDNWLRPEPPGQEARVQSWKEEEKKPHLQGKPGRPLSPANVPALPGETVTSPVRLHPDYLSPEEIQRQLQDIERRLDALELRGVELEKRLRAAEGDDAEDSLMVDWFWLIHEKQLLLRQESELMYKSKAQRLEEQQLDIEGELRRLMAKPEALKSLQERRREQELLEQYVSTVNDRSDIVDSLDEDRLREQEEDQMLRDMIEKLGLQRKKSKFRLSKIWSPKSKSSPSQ
UniProt A9UHW6: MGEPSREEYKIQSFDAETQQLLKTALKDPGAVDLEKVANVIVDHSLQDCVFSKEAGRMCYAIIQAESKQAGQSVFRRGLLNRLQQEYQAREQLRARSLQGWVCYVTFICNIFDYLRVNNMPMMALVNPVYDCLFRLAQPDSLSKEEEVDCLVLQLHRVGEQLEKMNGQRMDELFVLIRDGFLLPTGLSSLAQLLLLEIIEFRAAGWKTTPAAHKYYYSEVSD
UniProt Q9UL63, whole entry, looked up: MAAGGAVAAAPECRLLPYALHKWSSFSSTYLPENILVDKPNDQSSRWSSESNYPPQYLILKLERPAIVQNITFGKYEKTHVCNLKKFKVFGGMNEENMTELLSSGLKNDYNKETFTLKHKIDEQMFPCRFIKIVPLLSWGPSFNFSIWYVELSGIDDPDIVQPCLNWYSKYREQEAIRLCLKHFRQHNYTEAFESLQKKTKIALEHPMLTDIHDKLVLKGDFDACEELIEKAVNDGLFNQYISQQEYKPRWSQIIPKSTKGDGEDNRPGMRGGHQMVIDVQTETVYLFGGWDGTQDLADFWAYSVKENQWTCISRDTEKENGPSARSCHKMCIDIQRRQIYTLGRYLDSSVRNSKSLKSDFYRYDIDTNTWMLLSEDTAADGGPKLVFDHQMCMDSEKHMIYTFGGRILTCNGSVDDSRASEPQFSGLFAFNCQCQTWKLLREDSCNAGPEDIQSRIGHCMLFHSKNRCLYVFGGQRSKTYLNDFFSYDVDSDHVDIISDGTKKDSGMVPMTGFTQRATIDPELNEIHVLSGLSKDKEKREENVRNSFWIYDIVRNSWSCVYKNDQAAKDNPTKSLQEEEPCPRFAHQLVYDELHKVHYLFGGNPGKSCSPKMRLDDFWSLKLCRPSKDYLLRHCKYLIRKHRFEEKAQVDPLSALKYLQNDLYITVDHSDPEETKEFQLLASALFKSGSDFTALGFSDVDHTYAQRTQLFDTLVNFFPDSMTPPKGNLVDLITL
UniProt Q13015: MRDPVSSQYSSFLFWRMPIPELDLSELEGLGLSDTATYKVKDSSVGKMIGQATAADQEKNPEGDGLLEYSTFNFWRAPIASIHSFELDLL
UniProt Q9BV20: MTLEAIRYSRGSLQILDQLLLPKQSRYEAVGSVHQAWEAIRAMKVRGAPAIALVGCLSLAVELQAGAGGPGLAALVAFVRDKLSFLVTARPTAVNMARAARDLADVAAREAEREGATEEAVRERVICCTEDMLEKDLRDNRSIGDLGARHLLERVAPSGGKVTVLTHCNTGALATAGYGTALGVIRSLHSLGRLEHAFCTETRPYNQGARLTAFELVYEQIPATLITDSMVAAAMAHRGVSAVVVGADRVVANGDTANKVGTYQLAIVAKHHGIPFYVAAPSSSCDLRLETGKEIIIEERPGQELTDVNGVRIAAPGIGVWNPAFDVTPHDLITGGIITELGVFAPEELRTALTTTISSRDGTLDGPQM
UniProt Q9H8M7: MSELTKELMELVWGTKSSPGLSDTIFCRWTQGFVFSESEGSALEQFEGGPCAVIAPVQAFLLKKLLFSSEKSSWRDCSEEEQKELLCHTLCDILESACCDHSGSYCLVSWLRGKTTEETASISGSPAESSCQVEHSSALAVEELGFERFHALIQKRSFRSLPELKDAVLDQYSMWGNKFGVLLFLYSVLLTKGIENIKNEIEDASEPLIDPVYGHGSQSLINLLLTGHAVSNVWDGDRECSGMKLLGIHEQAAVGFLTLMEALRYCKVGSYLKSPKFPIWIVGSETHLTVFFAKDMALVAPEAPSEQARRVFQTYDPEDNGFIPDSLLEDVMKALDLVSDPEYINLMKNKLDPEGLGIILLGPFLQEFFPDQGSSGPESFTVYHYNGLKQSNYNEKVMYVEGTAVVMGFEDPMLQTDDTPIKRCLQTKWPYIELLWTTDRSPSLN
UniProt Q6IN84: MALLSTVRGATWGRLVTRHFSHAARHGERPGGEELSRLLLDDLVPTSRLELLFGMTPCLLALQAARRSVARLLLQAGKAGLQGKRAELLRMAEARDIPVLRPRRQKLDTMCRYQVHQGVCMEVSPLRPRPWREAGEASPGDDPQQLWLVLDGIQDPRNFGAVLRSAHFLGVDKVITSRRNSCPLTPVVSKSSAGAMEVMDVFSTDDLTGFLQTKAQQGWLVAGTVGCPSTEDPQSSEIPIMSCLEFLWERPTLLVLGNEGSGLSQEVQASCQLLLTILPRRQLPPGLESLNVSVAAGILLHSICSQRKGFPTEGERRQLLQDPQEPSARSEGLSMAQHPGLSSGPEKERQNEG
UniProt Q9UBU8, whole entry, looked up: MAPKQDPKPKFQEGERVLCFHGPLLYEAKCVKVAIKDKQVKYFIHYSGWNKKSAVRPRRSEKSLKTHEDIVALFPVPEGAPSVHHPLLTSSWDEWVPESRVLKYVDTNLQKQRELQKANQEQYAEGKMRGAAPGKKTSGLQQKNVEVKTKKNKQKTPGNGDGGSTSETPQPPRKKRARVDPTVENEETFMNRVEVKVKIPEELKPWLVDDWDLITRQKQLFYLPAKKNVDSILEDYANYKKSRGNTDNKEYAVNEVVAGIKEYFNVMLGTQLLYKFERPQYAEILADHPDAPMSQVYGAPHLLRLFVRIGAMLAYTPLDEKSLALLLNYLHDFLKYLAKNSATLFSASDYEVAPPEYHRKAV
UniProt Q8NHP6: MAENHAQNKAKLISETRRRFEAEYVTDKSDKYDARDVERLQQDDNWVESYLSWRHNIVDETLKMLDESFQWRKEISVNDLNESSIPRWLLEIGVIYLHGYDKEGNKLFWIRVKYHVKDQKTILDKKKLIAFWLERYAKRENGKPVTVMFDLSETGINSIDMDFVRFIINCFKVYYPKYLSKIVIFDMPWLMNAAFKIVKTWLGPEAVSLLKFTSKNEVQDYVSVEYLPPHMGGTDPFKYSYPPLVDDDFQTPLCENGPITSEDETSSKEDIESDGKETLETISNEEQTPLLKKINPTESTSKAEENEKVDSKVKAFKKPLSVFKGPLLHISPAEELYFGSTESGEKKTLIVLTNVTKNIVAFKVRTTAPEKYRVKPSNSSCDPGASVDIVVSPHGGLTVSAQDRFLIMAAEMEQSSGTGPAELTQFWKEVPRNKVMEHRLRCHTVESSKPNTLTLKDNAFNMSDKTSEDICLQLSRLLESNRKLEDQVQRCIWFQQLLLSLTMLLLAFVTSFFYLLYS
UniProt Q03111: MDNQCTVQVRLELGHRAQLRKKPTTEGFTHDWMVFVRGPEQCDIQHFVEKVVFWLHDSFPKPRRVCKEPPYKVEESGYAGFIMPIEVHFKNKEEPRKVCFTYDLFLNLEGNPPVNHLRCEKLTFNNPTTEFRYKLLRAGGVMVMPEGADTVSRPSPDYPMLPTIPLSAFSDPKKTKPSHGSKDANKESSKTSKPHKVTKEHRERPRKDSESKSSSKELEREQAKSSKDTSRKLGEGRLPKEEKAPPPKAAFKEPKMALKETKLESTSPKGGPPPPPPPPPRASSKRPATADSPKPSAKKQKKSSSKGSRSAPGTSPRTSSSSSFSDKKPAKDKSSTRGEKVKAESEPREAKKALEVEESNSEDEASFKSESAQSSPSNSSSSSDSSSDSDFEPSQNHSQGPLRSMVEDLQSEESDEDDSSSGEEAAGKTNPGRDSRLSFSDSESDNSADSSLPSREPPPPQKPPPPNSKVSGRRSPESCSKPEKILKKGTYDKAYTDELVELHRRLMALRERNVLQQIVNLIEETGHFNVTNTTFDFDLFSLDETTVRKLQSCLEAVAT
UniProt O96007: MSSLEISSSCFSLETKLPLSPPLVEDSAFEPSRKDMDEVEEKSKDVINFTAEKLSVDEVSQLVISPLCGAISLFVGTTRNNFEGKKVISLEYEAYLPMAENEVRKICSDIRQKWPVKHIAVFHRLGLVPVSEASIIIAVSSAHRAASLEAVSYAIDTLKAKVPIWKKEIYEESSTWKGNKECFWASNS
UniProt Q9NZB8: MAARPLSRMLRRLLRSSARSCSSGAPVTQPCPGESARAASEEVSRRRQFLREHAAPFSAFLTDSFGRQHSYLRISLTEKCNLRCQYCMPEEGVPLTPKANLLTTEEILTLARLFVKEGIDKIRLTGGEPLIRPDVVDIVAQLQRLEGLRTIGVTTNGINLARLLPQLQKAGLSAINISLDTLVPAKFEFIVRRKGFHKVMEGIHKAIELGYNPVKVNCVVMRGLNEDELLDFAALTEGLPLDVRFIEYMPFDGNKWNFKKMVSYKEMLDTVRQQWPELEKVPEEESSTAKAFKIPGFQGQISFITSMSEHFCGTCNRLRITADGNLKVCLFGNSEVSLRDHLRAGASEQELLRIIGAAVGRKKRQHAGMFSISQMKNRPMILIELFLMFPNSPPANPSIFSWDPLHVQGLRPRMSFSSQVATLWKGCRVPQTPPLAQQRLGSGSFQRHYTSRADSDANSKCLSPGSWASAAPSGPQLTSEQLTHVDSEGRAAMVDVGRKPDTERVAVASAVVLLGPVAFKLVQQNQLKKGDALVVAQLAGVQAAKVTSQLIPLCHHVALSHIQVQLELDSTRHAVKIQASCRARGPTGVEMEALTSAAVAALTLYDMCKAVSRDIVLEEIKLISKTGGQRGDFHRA

[2] = compound: CN1CCN(c2nc(C3=C(c4c[nH]c5ccccc45)C(=O)NC3=O)c3ccccc3n2)CC1 [sotrastaurin]
Summary of the method: as §1

[3] = compound: CN1CC[C@H](c2c(O)cc(O)c3c(=O)cc(-c4ccccc4Cl)oc23)[C@H](O)C1 [alvocidib]
Summary of the method: as §1

[4] = compound: CN1CCc2c(c3ccccc3n2Cc2ccc(C(=O)NO)cc2)C1 [Tubastatin A]
Summary of the method: as §1

[5] = compound: CNC(=O)C1=CC=CC=C1NC2=NC(=NC=C2Cl)NC3=C(C=C(C=C3)N4CCOCC4)OC
Summary of the method: as §1

[6] = compound: CNC(=O)c1ccc(Nc2ncc(C(F)(F)F)c(NCc3nccnc3N(C)S(C)(=O)=O)n2)cc1 [defactinib]
Summary of the method: as §1

[7] = compound: CNCc1ccc(-c2[nH]c3cc(F)cc4c3c2CCNC4=O)cc1 [rucaparib]
Summary of the method: as §1

[8] = compound: CNc1nc(-c2ccc3c(N)n[nH]c3c2)cc(N2C[C@@H](C(=O)NC3CCCCC3)CC[C@H]2C)n1
Summary of the method: as §1

[9] = compound: COC(=O)N[C@@H](C)CNc1nccc(-c2cn(C(C)C)nc2-c2cc(Cl)cc(NS(C)(=O)=O)c2F)n1 [encorafenib]
Summary of the method: as §1

[10] = compound: COC(=O)[C@H](CCSC)NC(=O)C1=C(C=C(C=C1)NC[C@H](CS)N)C2=CC=CC=C2
Summary of the method: as §1

Measured: log2 fold change

MRPL27 (UniProt Q9P0M9)
inactive: [1] -0.158 | [2] -0.052 | [3] 0.117 | [4] 0.061 | [5] 0.069 | [6] 0.27 | [7] 0.125 | [8] 0.162 | [9] 0.089 | [10] -0.061

MIPEP (UniProt Q99797)
inactive: [1] 0.032 | [2] 0 | [3] -0.074 | [4] 0.019 | [5] 0.018 | [6] -0.064 | [7] -0.13 | [8] -0.038 | [9] -0.008 | [10] -0.031

MICALL2 (UniProt Q8IY33)
inactive: [1] -0.087 | [2] 0.02 | [3] -0.145 | [4] 0.075 | [5] -0.021 | [6] -0.131 | [7] 0.027 | [8] 0.082 | [9] 0.046 | [10] -0.002

MIF4GD isoform 3 (UniProt A9UHW6)
inactive: [1] 0.062 | [2] 0.031 | [3] -0.02 | [4] 0.027 | [5] 0.01 | [6] -0.016 | [7] -0.075 | [8] 0.001 | [9] 0.096 | [10] -0.051

MKLN1 (UniProt Q9UL63)
inactive: [1] 0.029 | [2] -0.051 | [3] 0.028 | [4] 0.014 | [5] 0.049 | [6] 0.008 | [7] -0.008 | [8] -0.037 | [9] 0.025 | [10] 0.007

MRE11 isoform 3 (UniProt P49959)
inactive: [1] 0.011 | [2] -0.021 | [3] -0.018 | [4] -0.063 | [5] -0.019 | [6] -0.05 | [7] -0.009 | [8] -0.031 | [9] 0.02 | [10] 0.036

MLLT11 (UniProt Q13015)
inactive: [1] -0.138 | [2] 0.189 | [3] -0.17 | [4] 0.029 | [5] -0.031 | [6] -0.182 | [7] -0.016 | [8] -0.047 | [9] -0.086 | [10] 0.293

MRI1 (UniProt Q9BV20)
inactive: [1] -0.023 | [2] -0.009 | [3] -0.024 | [4] 0.013 | [5] 0.005 | [6] 0 | [7] -0.041 | [8] -0.034 | [9] -0.021 | [10] 0.028

MINDY3 (UniProt Q9H8M7)
inactive: [1] 0.035 | [2] 0.072 | [3] -0.011 | [4] 0.058 | [5] -0.047 | [6] 0.005 | [7] -0.013 | [8] 0.039 | [9] -0.028 | [10] 0.044

MRPL23 (UniProt Q16540)
inactive: [1] -0.16 | [2] 0.016 | [3] 0.111 | [4] 0.066 | [5] -0.062 | [6] 0.212 | [7] 0.125 | [8] 0.01 | [9] 0.048 | [10] -0.216

MRPL40 (UniProt Q9NQ50)
inactive: [1] -0.17 | [2] 0.012 | [3] 0.005 | [4] 0.023 | [5] -0.009 | [6] 0.129 | [7] 0.071 | [8] 0.078 | [9] 0.005 | [10] 0

MRM1 (UniProt Q6IN84)
inactive: [1] -0.041 | [2] -0.025 | [3] 0.16 | [4] 0.095 | [5] 0.112 | [6] 0.118 | [7] 0.223 | [8] -0.073 | [9] 0.087 | [10] -0.013

MRPL32 (UniProt Q9BYC8)
inactive: [1] 0.001 | [2] 0.172 | [3] 0.104 | [4] 0.002 | [5] -0.05 | [6] 0.111 | [7] 0.166 | [8] -0.113 | [9] 0.02 | [10] 0.018

MRPL14 (UniProt Q6P1L8)
inactive: [1] 0.022 | [2] 0.029 | [3] 0.001 | [4] -0.045 | [5] -0.01 | [6] -0.009 | [7] 0.033 | [8] 0.062 | [9] -0.022 | [10] -0.046

MRPL43 isoform 4 (UniProt Q8N983)
inactive: [1] -0.136 | [2] 0.043 | [3] 0.088 | [4] 0.122 | [5] -0.004 | [6] 0.18 | [7] 0.084 | [8] 0.108 | [9] 0.108 | [10] -0.057

MRPL15 (UniProt Q9P015)
inactive: [1] -0.127 | [2] -0.053 | [3] 0.146 | [4] 0.111 | [5] -0.03 | [6] 0.193 | [7] 0.138 | [8] 0.14 | [9] 0.112 | [10] -0.026

MRPL22 (UniProt Q9NWU5)
inactive: [1] -0.186 | [2] 0.019 | [3] 0.063 | [4] 0.059 | [5] -0.051 | [6] 0.194 | [7] 0.114 | [8] 0.119 | [9] 0.055 | [10] -0.108

MORF4L1 isoform 2 (UniProt Q9UBU8)
inactive: [1] -0.065 | [2] 0.043 | [3] -0.048 | [4] 0.021 | [5] -0.005 | [6] -0.077 | [7] -0.062 | [8] -0.003 | [9] 0.085 | [10] 0.083

MRPL24 (UniProt Q96A35)
inactive: [1] -0.14 | [2] -0.029 | [3] 0.124 | [4] 0.054 | [5] -0.066 | [6] 0.208 | [7] 0.039 | [8] 0.17 | [9] 0.027 | [10] -0.033

MOSPD2 (UniProt Q8NHP6)
inactive: [1] -0.07 | [2] -0.061 | [3] -0.028 | [4] 0.019 | [5] 0 | [6] -0.039 | [7] -0.047 | [8] -0.01 | [9] -0.036 | [10] -0.007

MRPL17 (UniProt Q9NRX2)
inactive: [1] -0.129 | [2] -0.011 | [3] 0.014 | [4] 0.071 | [5] 0.036 | [6] 0.162 | [7] 0.05 | [8] 0.078 | [9] 0.043 | [10] -0.044

MRPL3 (UniProt P09001)
inactive: [1] -0.122 | [2] -0.071 | [3] 0.08 | [4] 0.098 | [5] -0.014 | [6] 0.189 | [7] 0.111 | [8] 0.235 | [9] 0.148 | [10] -0.051

MRPL35 (UniProt Q9NZE8)
inactive: [1] -0.227 | [2] -0.076 | [3] 0.061 | [4] 0.033 | [5] 0.001 | [6] 0.049 | [7] 0.104 | [8] 0.071 | [9] 0.153 | [10] -0.054

Reprinted from above (2 entries):
MRPL23 (UniProt Q16540)
inactive: [1] -0.16 | [2] 0.016 | [3] 0.111 | [4] 0.066 | [5] -0.062 | [6] 0.212 | [7] 0.125 | [8] 0.01 | [9] 0.048 | [10] -0.216

MRPL40 (UniProt Q9NQ50)
inactive: [1] -0.17 | [2] 0.012 | [3] 0.005 | [4] 0.023 | [5] -0.009 | [6] 0.129 | [7] 0.071 | [8] 0.078 | [9] 0.005 | [10] 0

(cont.)

MLLT1 (UniProt Q03111)
inactive: [1] 0.032 | [2] -0.05 | [3] -0.009 | [4] 0.142 | [5] 0.014 | [6] -0.035 | [7] 0.025 | [8] -0.055 | [9] 0.07 | [10] 0.097

MOCS2 (UniProt O96007)
inactive: [1] 0.014 | [2] 0.014 | [3] -0.057 | [4] 0.041 | [5] -0.033 | [6] 0.007 | [7] -0.004 | [8] -0.072 | [9] -0.028 | [10] 0.025

MRPL1 (UniProt Q9BYD6)
inactive: [1] -0.125 | [2] -0.181 | [3] 0.014 | [4] 0.195 | [5] -0.022 | [6] 0.304 | [7] 0.156 | [8] 0.175 | [9] 0.104 | [10] -0.031

MOCS1 isoform 8 (UniProt Q9NZB8)
inactive: [1] 0.11 | [2] -0.01 | [3] -0.028 | [4] 0.066 | [5] 0.066 | [6] 0.02 | [7] -0.059 | [8] -0.076 | [9] -0.121 | [10] 0.077

MIOS (UniProt Q9NXC5)
inactive: [1] 0.027 | [2] -0.041 | [3] 0.056 | [4] 0.003 | [5] 0.033 | [6] -0.012 | [7] -0.032 | [8] -0.041 | [9] -0.017 | [10] 0.035

MRPL11 (UniProt Q9Y3B7)
inactive: [1] -0.148 | [2] -0.028 | [3] 0.117 | [4] 0.084 | [5] 0.018 | [6] 0.161 | [7] 0.115 | [8] 0.136 | [9] 0.138 | [10] -0.038

Reference: the supplement of paper PMC10849652
